Measurements published in paper PMC7093409.
Results are given in words; binding and its absence hold for the method and conditions named. In cells and extracts the contact can be indirect. Some entries that bind do so weakly or less than the wild type.

Amino acid sequences for entries named in this document (tags omitted). A change or cut given only in a name is not applied to a line headed by its entry.
UniProt Q9DCD6: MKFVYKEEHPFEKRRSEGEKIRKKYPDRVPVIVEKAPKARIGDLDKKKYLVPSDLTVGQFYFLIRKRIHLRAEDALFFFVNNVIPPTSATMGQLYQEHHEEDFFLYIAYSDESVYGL
UniProt Q99MI1: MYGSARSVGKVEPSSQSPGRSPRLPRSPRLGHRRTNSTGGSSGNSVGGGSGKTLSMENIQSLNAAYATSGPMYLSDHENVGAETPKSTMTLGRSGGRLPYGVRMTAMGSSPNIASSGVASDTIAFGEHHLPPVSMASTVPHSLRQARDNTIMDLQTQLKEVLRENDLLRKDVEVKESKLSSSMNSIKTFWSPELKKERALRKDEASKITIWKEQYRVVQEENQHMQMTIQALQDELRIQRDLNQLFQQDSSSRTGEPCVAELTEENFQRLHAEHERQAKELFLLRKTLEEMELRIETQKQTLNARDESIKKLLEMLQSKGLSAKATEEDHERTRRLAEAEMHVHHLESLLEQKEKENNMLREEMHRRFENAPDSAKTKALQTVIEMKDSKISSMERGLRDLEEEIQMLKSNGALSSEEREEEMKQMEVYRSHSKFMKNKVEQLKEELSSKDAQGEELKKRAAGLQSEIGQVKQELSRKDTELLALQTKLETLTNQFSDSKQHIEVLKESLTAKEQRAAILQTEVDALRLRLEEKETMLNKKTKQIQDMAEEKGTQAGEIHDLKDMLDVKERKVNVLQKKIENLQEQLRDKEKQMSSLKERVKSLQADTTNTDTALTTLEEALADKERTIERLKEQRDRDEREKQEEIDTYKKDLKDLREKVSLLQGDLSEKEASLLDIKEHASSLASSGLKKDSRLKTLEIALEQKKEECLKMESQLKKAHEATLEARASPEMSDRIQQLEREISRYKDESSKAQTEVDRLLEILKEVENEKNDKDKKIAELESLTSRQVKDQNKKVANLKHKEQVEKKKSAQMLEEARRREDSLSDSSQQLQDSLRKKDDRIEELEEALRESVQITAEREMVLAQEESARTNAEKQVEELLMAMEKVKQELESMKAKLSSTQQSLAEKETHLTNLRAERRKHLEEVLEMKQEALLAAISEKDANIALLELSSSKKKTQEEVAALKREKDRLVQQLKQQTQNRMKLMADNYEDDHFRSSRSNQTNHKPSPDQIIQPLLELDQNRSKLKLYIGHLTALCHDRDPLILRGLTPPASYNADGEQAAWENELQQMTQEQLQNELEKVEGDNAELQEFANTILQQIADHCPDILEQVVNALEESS

Key:
[1] = target: eGFP-GABARAP (mouse) (UniProt Q9DCD6); test: co-IP; HEK293T cells co-transfected with the eGFP fusion and tdTomato-ELKS1, RIPA lysate, magnetic GFP-microbeads, blot against mCherry
[2] = target: eGFP-GABARAP G116A (mouse) (UniProt Q9DCD6); test: as above
[3] = target: eGFP-LC3A (mouse) (UniProt Q91VR7); test: as above
[4] = target: eGFP-LC3A G120A (mouse) (UniProt Q91VR7); test: as above
[5] = target: tdTomato-ELKS1 (UniProt Q99MI1); test: co-IP; HEK cell lysates, ELKS1 immunoprecipitation, blot against GFP

binding [1] | binding [2] | binding [3] | binding [4] | binding [5] | Substance
no binding | no binding | binds | binds | – | tdTomato-ELKS1 (from UniProt Q99MI1 1-1120)
– | – | – | – | binds | eGFP-LC3A (from UniProt Q91VR7 1-121)
